Experiment: peptide synthesis
Details: whole synthesis, HPLC

Substance | purity (crude or final not stated) [%]
YVAM-NH2 (C-terminal amide (-NH2)) | 98.93
FRWWR-NH2 | 98.79
RRWQWR-NH2 | 98.50
KRWWR-NH2 | 95.96
YVAE-NH2 (C-terminal amide (-NH2)) | 98.34

Source: paper PMC6833008 (Molecules, 2019)
